Results as given in US20050261283A1, “Methods and compositions for the treatment of graft failure” (priority 2002, published 2005).
Structures can show the parent of a compound that is named as a salt.

Tested on: human aortic vascular smooth muscle cell (HASOM cells)
Assay: PDGF-BB induced migration of human aortic vascular smooth muscle cells, Boyden chamber
Format: cell-based
Settings: in vitro VSMC migration, read-out: IC50 for blocking VSMC migration
Description: The cells were then cultured in the presence of these agents for forty-eight hours prior to the migration assay. […] Each well contained an insert with a polycarbonate filter having 8 μm pores. In preparation for the migration assays, the membranes were coated with 0.1% gelatin for 8 hours, aspirated, and allowed to dry for 2 hours.
The M-199 media containing 0.5% BSA and 20 ng/ml human PDGF-B (hPDGF-BB) was placed in the bottom Boyden chamber. Cells were incubated at 5% CO2 at 37° C. for twelve hours and the cells lying on the upper surface of the membrane were scraped off. The insert membranes were removed and the cells on the lower surface of each membrane were stained with hematoxylin. Cell migration was then quantified by counting the cells in five random high-power fields on the lower surface of the membrane. All assays were run in triplicate.

IC50: 0.25 to 0.5 µg/mL
Structure (SMILES): Cc1ccc(NC(=O)c2ccc(CN3CCN(C)CC3)cc2)cc1Nc1nccc(-c2cccnc2)n1 [Gleevec, imatinib mesylate]
